In the assay the target is Flag-tagged murine Asxl1 (stably expressed in HEK293 cells) (mouse) (UniProt P59598). Nature of the assay: affinity purification with mass spectrometry; IP with anti-Flag antibody-coupled beads from HEK293 cells stably expressing Flag-tagged murine Asxl1; SDS-PAGE, Coomassie Blue, LC-MS/MS.

Chains of the proteins cited; added tags and fusions are not shown.
UniProt P59598: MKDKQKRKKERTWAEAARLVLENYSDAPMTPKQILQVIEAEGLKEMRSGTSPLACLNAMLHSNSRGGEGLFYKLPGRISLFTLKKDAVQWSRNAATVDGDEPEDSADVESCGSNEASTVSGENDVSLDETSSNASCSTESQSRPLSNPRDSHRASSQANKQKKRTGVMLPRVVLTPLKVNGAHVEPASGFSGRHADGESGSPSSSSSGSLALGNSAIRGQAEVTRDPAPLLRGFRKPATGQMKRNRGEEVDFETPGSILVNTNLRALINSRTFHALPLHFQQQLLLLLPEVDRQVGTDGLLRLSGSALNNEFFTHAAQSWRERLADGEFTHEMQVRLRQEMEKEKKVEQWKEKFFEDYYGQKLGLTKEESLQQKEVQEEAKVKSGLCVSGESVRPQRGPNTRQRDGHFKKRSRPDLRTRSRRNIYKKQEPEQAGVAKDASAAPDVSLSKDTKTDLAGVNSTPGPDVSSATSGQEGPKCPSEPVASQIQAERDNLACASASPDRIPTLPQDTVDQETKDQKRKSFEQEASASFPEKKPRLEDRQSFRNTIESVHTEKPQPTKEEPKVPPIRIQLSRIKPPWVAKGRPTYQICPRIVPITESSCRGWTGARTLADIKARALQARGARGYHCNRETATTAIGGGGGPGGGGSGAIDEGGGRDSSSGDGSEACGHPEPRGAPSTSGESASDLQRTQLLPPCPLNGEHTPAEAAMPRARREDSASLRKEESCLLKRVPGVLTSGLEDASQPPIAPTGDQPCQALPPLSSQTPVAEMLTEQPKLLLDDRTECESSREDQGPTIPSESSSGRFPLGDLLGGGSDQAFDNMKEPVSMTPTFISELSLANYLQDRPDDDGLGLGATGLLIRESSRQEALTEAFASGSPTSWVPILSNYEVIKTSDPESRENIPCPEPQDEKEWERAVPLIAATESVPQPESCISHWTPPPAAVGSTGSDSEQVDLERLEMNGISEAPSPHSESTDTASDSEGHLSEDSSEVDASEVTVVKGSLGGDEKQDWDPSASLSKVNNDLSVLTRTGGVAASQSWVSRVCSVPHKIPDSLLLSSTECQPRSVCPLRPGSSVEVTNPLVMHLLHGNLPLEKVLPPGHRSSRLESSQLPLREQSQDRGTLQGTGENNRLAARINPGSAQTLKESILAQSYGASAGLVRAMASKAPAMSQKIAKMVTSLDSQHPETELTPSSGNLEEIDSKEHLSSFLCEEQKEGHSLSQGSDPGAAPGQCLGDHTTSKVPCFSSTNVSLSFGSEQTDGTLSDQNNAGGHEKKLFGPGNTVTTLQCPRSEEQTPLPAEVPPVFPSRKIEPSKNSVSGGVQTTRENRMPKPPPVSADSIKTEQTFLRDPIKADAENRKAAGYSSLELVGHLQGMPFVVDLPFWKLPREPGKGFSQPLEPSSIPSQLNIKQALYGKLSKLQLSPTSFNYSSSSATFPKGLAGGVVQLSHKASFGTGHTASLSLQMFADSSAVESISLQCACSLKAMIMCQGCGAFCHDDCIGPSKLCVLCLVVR
UniProt P45973: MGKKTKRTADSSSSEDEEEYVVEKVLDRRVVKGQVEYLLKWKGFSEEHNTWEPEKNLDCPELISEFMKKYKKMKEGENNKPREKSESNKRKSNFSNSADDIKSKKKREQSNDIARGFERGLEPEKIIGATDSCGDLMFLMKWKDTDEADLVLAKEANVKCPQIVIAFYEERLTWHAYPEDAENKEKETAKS

The record followed here is publication PMC6215009.

These are yes or no findings as the source states them, for the method shown. In cells and extracts the contact can be indirect. These calls come from enrichment with a bait or labelling near it, and not all partners need be listed.

For the molecule “CBX5, endogenous human (from UniProt P45973 1-191)”, the binding result is “binds”.

B1: OGT, endogenous human (protein, UniProt O15294 1-1046)
chain: MASSVGNVADSTEPTKRMLSFQGLAELAHREYQAGDFEAAERHCMQLWRQEPDNTGVLLLLSSIHFQCRRLDRSAHFSTLAIKQNPLLAEAYSNLGNVYKERGQLQEAIEHYRHALRLKPDFIDGYINLAAALVAAGDMEGAVQAYVSALQYNPDLYCVRSDLGNLLKALGRLEEAKACYLKAIETQPNFAVAWSNLGCVFNAQGEIWLAIHHFEKAVTLDPNFLDAYINLGNVLKEARIFDRAVAAYLRALSLSPNHAVVHGNLACVYYEQGLIDLAIDTYRRAIELQPHFPDAYCNLANALKEKGSVAEAEDCYNTALRLCPTHADSLNNLANIKREQGNIEEAVRLYRKALEVFPEFAAAHSNLASVLQQQGKLQEALMHYKEAIRISPTFADAYSNMGNTLKEMQDVQGALQCYTRAIQINPAFADAHSNLASIHKDSGNIPEAIASYRTALKLKPDFPDAYCNLAHCLQIVCDWTDYDERMKKLVSIVADQLEKNRLPSVHPHHSMLYPLSHGFRKAIAERHGNLCLDKINVLHKPPYEHPKDLKLSDGRLRVGYVSSDFGNHPTSHLMQSIPGMHNPDKFEVFCYALSPDDGTNFRVKVMAEANHFIDLSQIPCNGKAADRIHQDGIHILVNMNGYTKGARNELFALRPAPIQAMWLGYPGTSGALFMDYIITDQETSPAEVAEQYSEKLAYMPHTFFIGDHANMFPHLKKKAVIDFKSNGHIYDNRIVLNGIDLKAFLDSLPDVKIVKMKCPDGGDNADSSNTALNMPVIPMNTIAEAVIEMINRGQIQITINGFSISNGLATTQINNKAATGEEVPRTIIVTTRSQYGLPEDAIVYCNFNQLYKIDPSTLQMWANILKRVPNSVLWLLRFPAVGEPNIQQYAQNMGLPQNRIIFSPVAPKEEHVRRGQLADVCLDTPLCNGHTTGMDVLWAGTPMVTMPGETLASRVAASQLTCLGCLELIAKNRQEYEDIAVKLGTDLEYLKKVRGKVWKQRISSPLFNTKQYTMELERLYLQMWEHYAAGNKPDHMIKPVEVTESA
B1: the binding entry was “binds”.
